# No constants are given. Whether binding was seen depends on the method and setting. Some results given as binding are weak or reduced against the parent protein; the word gives no strength.
# T1: human B7H3 (human) (UniProt Q5ZPR3)
# T1 sequence (looked up): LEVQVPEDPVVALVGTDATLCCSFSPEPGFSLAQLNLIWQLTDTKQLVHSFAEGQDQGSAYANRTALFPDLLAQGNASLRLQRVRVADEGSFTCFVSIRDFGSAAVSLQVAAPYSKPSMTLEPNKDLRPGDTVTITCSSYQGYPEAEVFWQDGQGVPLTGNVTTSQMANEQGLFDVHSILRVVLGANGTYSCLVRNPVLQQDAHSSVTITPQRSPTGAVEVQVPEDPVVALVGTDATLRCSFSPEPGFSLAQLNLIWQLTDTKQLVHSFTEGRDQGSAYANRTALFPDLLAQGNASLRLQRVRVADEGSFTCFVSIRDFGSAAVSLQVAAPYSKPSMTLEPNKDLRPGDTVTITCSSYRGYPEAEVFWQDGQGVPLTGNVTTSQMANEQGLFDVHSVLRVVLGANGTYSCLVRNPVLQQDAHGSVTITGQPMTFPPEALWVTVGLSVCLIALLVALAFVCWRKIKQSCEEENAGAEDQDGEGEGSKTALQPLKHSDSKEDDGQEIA
# B1: Ly1442 (antibody, human IgG1, kappa, V domains shown)
# VH: QVQLVQSGAEVKKPGASVKVSCKASGYTFTSYWMHWVRQAPGQGLEWMGMIHPNSGGTNYNEKFKGRVTMTRDTSISTAYMELSRLRSDDTAVYYCARSQATWFAYWGQGTLVTVSS
# VL: EIVLTQSPATLSLSPGERATLSCRASSSVSSSYLHWYQQKPGQAPRLLIYSTSNLASGIPARFSGSGSGTDFTLTISSLEPEDFAVYYCQHYSGYPLTFGGGTKVEIKR
# B2: Ly383 (antibody, human IgG1, kappa, V domains shown)
# VH: EVQLQQSGPELVKPGASVKMSCKASGYTFTSYVMHWVKQKPGQGLEWIGYINPYNDGTECTDKFKGKATLTSDKSSSTAYMELSSLTSEDSAVYYCASIYYGYDGTYFGVWGAGTSVTVSS
# VL: QIVLSQSPAILSTSPGEKVTMTCRASSSVSYMHWYQQKPGSSPKPWIYATSNLASGVPARFSGSRSGTSYSLTISRVEAEDAATYYCQQWSSNTLTFGGGTKLELKR
# B3: Ly387 (antibody, human IgG1, kappa, V domains shown)
# VH: QVQLQQPGAELVKPGASVKLSCKASGYTFTSYWMHWVKQRPGQGLEWIGMIHPNSGGTNYNEKFKGKGTLTVDKSSSTAYMQLSSLTSDDSAVYYCVTSQATWFAYWGQGTLVTVSA
# VL: ENVLTQSPAIMSVSPGEKVTMTCRASSSVSSSYLHWYQQKSGASPKFWIYSTSNLASGVPARFSGSGSGTSYSLTISSVEAEDAATYYCQHYSGYPLTFGAGTKLELRR
# Molecular target: T1, human B7H3 (human)
# Assay: FACS on CHO cells over-expressing human B7H3
row,binding,Binder
1,binds,B1
2,binds,B2
3,binds,B3

# Reference: US20240218069A1
